Drawing on paper PMC9942973, this text covers binding for one molecule.

No constants are given. Whether binding was seen depends on the method and setting. Binding seen in cells or lysates may run through a third protein. Some results given as binding are weak or reduced against the parent protein; the word gives no strength.

This experiment deals with pUL97-FLAG (HCMV pUL97, wild type, FLAG-tagged) (HCMV (human cytomegalovirus)) (UniProt P16788). Kind of experiment: co-IP; NPCs transduced with lentivirus expressing UL97-FLAG or K355M-FLAG, harvested 72 h post-transduction; lysate (1 mg total protein) with 1 ug anti-FLAG antibody overnight at 4°C, protein A+G agarose beads, 5 washes with Cell Lysis Buffer, immunoblot; normal IgG as control. On the technique in general: In western blotting, separated proteins are transferred to a membrane and probed.

B1: regulatory factor X 7 (RFX7) (protein, UniProt Q2KHR2 1-1460)
chain: MAEEQQQPPPQQPDAHQQLPPSAPNSGVALPALVPGLPGTEASALQHKIKNSICKTVQSKVDCILQEVEKFTDLEKLYLYLQLPSGLSNGEKSDQNAMSSSRAQQMHAFSWIRNTLEEHPETSLPKQEVYDEYKSYCDNLGYHPLSAADFGKIMKNVFPNMKARRLGTRGKSKYCYSGLRKKAFVHMPTLPNLDFHKTGDGLEGAEPSGQLQNIDEEVISSACRLVCEWAQKVLSQPFDTVLELARFLVKSHYIGTKSMAALTVMAAAPAGMKGITQPSAFIPTAESNSFQPQVKTLPSPIDAKQQLQRKIQKKQQEQKLQSPLPGESAAKKSESATSNGVTNLPNGNPSILSPQPIGIVVAAVPSPIPVQRTRQLVTSPSPMSSSDGKVLPLNVQVVTQHMQSVKQAPKTPQNVPASPGGDRSARHRYPQILPKPANTSALTIRSPTTVLFTSSPIKTAVVPASHMSSLNVVKMTTISLTPSNSNTPLKHSASVSSATGTTEESRSVPQIKNGSVVSLQSPGSRSSSAGGTSAVEVKVEPETSSDEHPVQCQENSDEAKAPQTPSALLGQKSNTDGALQKPSNEGVIEIKATKVCDQRTKCKSRCNEMLPGTSTGNNQSTITLSVASQNLTFTSSSSPPNGDSINKDPKLCTKSPRKRLSSTLQETQVPPVKKPIVEQLSAATIEGQKQGSVKKDQKVPHSGKTEGSTAGAQIPSKVSVNVSSHIGANQPLNSSALVISDSALEQQTTPSSSPDIKVKLEGSVFLLDSDSKSVGSFNPNGWQQITKDSEFISASCEQQQDISVMTIPEHSDINDLEKSVWELEGMPQDTYSQQLHSQIQESSLNQIQAHSSDQLPLQSELKEFEPSVSQTNESYFPFDDELTQDSIVEELVLMEQQMSMNNSHSYGNCLGMTLQSQSVTPGAPMSSHTSSTHFYHPIHSNGTPIHTPTPTPTPTPTPTPTPTPTSEMIAGSQSLSRESPCSRLAQTTPVDSALGSSRHTPIGTPHSNCSSSVPPSPVECRNPFAFTPISSSMAYHDASIVSSSPVKPMQRPMATHPDKTKLEWMNNGYSGVGNSSVSGHGILPSYQELVEDRFRKPHAFAVPGQSYQSQSRHHDTHFGRLTPVSPVQHQGATVNNTNKQEGFAVPAPLDNKGTNSSASSNFRCRSVSPAVHRQRNLSGSTLYPVSNIPRSNVTPFGSPVTPEVHVFTNVHTDACANNIAQRSQSVPLTVMMQTAFPNALQKQANSKKITNVLLSKLDSDNDDAVRGLGMNNLPSNYTARMNLTQILEPSTVFPSANPQNMIDSSTSVYEFQTPSYLTKSNSTGQINFSPGDNQAQSEIGEQQLDFNSTVKDLLSGDSLQTNQQLVGQGASDLTNTASDFSSDIRLSSELSGSINDLNTLDPNLLFDPGRQQGQDDEATLEELKNDPLFQQICSESMNSMTSSGFEWIESKDHPTVEMLG
In the case of B1, the binding entry is recorded as “binds”.
